# Data from patent US20210130409 (published 2021).
# Assay: general procedure: Fmoc solid-phase peptide synthesis; 2-chlorotrityl chloride resin
# [1] = whole synthesis, UPLC (Aquity, CSH C18), UV 215 nm/254 nm
Substance,"crude HPLC purity (whole synthesis, HPLC area %) [%]",crude HPLC purity [1] [%],crude purity (method not given) [1] [%],final HPLC purity [1] [%],"crude yield (whole synthesis, overall USP yield from Boc-Orn(Fmoc)-OH) [%]","crude yield (whole synthesis, scale 100 g)","crude yield (whole synthesis, scale 200 g)","crude purity (method not given) (late stage modification step, UPLC (Aquity, CSH C18), UV 215 nm/254 nm) [%]"
HCin-[Orn-Pro-D-Cha-Trp-Arg],83.76,84,63.7,99.75,24,approximately 36%,approximately 50%,
HCin[Orn-Pro-D-Cha-Trp(Boc)-Arg(Pbf)],,,,,,,,71.9
